Source: PubChem BioAssay AID504444 (National Center for Advancing Translational Sciences (NCATS), 2011)
About 7,500 (2.1%) of roughly 360,000 compounds were called active. This list was built around the results that the source calls inconclusive (neither active nor inactive); the mix of calls is not that of the screen. Calls come from the whole dose curve; as a rule, active = well fitted inhibition curve with a large enough effect; inconclusive = small, poorly fitted or top-dose-only effect, or effect the other way; inactive = flat fitted curve, though single readings scatter. A potency beside an inconclusive call is a rough fit, not a confirmed value.
Potency is the fitted concentration of half-maximal effect.

Assay: Nrf2 qHTS screen for inhibitors; note: nearly all actives have a fitted effect of over 60% in size
Conditions: A549 ARE-Fluc reporter, luciferase luminescence, 18-24 h; series mostly up to 46 µM
Summary of the method: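 Nrf2 activity is the BugLite luminescence, read 15 min after reagent at room temperature, following CellTiter-Fluor cytotoxicity readout (30 min, 37C). Compound titrations were applied for 18-24 h to 5000 A549 ARE_Fluc cells/well in 5% FBS OPTI-MEM.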
In the case of `COc1ccc(-c2noc(N3CCC(C(=O)N4CCN(c5ccccn5)CC4)CC3)n2)cc1`, the Potency is reported as active: 18.4 µM. In the case of `CC1=Nc2ccccc2/C1=C\c1sc(Nc2ccc(C)cc2)nc1O`, the Potency is reported as “inactive”. With `O=C(Cc1ccccc1[N+](=O)[O-])OCC(=O)c1ccccc1Br` the Potency was “inactive”. For `COCCNC(=O)c1cnn2c(C(F)(F)F)cc(-c3ccc(C)cc3)nc12`, the Potency was inconclusive: 2.59 µM [falling, full curve, poor fit]. With `COc1ccccc1C(=O)Nc1nnc(-c2ccc(F)cc2)s1` the Potency was inconclusive: 2.31 µM [activator, full curve]. For `COc1ccc(NC(=O)CCCSc2nc(-c3ccco3)cc(C(F)(F)F)n2)c(OC)c1`, the Potency was inconclusive: 25.9 µM [falling, single point]. For `Nc1ccc(-c2cc3ccccc3oc2=O)cc1`, the Potency was active: 1.3 µM. For `Clc1cccc(-c2nnc(SC/C=C/c3ccccc3)n2Cc2ccco2)c1`, the Potency was inconclusive: 18.4 µM [falling, single point]. For `C/C(=N\NC(=O)c1nc2ccccn2c1C)c1cccc([N+](=O)[O-])c1`, the Potency was inconclusive: 5.17 µM [falling, single point]. With `COc1ccc(S(=O)(=O)N2CCCC2CNC(=O)C(=O)Nc2ccc(C)cc2)cc1` (stereo not drawn) the Potency was inconclusive: 18.4 µM [falling, partial curve, poor fit]. With `COc1cccc(OCc2nc3ccccc3n2Cc2ccccc2C)c1` the Potency was inconclusive: 16.4 µM [falling, single point]. For `COc1ccc(C)cc1NC(=O)c1cc(S(=O)(=O)N2CCCCC2)ccc1N1CCOCC1`, the Potency was inconclusive: 11.6 µM [falling, partial curve]. With `CCNS(=O)(=O)c1ccc(CCC(=O)N2CCN(c3cc(Cl)ccc3C)CC2)cc1` the Potency was active: 8.2 µM. In the case of `O=C(COc1ccc(Cl)cc1Cl)Nc1ccc2nc3n(c(=O)c2c1)CCCC3`, the Potency is reported as inconclusive: 29.1 µM [falling, single point]. With `Cc1ccc(OCC(=O)Nc2ccc(C)c(S(=O)(=O)N3CCCCC3)c2)c([N+](=O)[O-])n1` the Potency was inconclusive: 23.1 µM [falling, single point]. In the case of `COc1ccc(C)cc1NC(=O)C1CCCN(S(=O)(=O)c2cccnc2)C1` (stereo not drawn), the Potency is reported as inconclusive: 23.1 µM [falling, partial curve, poor fit]. For `COc1ccc(/C=N/Nc2ccccn2)c(OC)c1OC`, the Potency was inconclusive: 25.9 µM [activator, single point]. In the case of `O=C(COc1nncc2ccccc12)Nc1ccc(Br)cc1F`, the Potency is reported as inconclusive: 32.6 µM [falling, single point]. For `CCCNC(=O)CSc1nc(-c2cccs2)cc(C(F)(F)F)n1`, the Potency was inconclusive: 5.8 µM [falling, full curve, poor fit]. With `CCOC(=O)c1ccc(Nc2c(OCC)c(=O)c2=O)cc1` the Potency was “inactive”. With `CCOC(=O)C1=C(CS(=O)(=O)c2ccc(C)cc2)NC(=O)NC1c1ccc(O)c(OC)c1` (stereo not drawn) the Potency was “inactive”. For `O=C(Nc1ccc(NC(=O)C2CC2)nc1)c1cccnc1`, the Potency was inconclusive: 7.31 µM [falling, partial curve]. With `Cc1cccnc1NC(=O)c1cccc(S(=O)(=O)N2CCN(c3ccc(F)cc3)CC2)c1` the Potency was inconclusive: 20.6 µM [falling, single point]. With `O=C1C2(CCC13COC(c1ccc(O)cc1)OC3)COC(c1ccc(O)cc1)OC2` (stereo not drawn) the Potency was inconclusive: 18.4 µM [falling, partial curve, poor fit]. In the case of `COC(=O)c1c(C)[nH]c(C(=O)OCC(=O)NCC(C)C)c1C`, the Potency is reported as inconclusive: 29.1 µM [falling, partial curve, poor fit]. In the case of `Cc1ccc(F)c(Cn2cnc3c(cnn3C(C)(C)C)c2=O)c1Cl`, the Potency is reported as inconclusive: 32.6 µM [falling, single point]. With `COc1ccc(NC(=O)Cc2nnc(SCC(=O)Nc3ccc(F)cc3)n2C)cc1` the Potency was “inactive”. In the case of `COC(=O)C(NC(=O)c1ccccc1C)(Nc1ncc(S(=O)(=O)c2ccc([N+](=O)[O-])cc2)s1)C(F)(F)F` (stereo not drawn), the Potency is reported as inconclusive: 29.1 µM [falling, single point]. In the case of `CCOC(=O)N1CCN(C(=O)c2ccc3nc4ccc(Cl)cc4c(=O)n3c2)CC1`, the Potency is reported as “inactive”. With `CC(C)OCc1cc(CN2CCN(c3cccc(C(F)(F)F)c3)CC2)c(O)c2ncccc12` the Potency was active: 16.4 µM. In the case of `CC(=O)Nc1nc(C2COc3ccccc3O2)cs1` (stereo not drawn), the Potency is reported as inconclusive: 0.411 µM [activator, full curve]. In the case of `CC(C)CC(C(=O)NC1CCCCC1)N(Cc1cccs1)C(=O)c1snc(C(N)=O)c1N` (stereo not drawn), the Potency is reported as inconclusive: 29.1 µM [falling, single point]. With `COc1ccc(NC(=O)Cc2ccc(C)c(C)c2)cc1S(=O)(=O)N1CCCCC1` the Potency was inconclusive: 29.1 µM [falling, single point]. With `Cc1cc(C)c2c(c1)/C(=C/C(=O)c1ccc(Br)s1)C(=O)N2` the Potency was active: 9.2 µM. With `Cc1cc(NC(=O)c2ccccc2)sc1C` the Potency was inconclusive: 1.46 µM [activator, full curve]. For `O=C(Nc1ccc(Nc2ccccc2)cc1)c1ccc(Br)cc1`, the Potency was inconclusive: 32.6 µM [falling, single point]. For `CC(NC(=O)c1ccc(Cl)c(Cl)c1)c1ccc(-c2ccccc2)cc1` (stereo not drawn), the Potency was “inactive”. For `Cc1cc(C)c(NC(=O)c2sc3nc4c(cc3c2N)C(=O)CC(C)(C)C4)c(C)c1`, the Potency was inconclusive: 20.6 µM [falling, single point]. For `CC1(C)Cc2c(cnn2-c2cccc(F)c2)C(NC(=O)c2ccc(=O)[nH]n2)C1` (stereo not drawn), the Potency was inconclusive: 16.4 µM [falling, single point]. For `CN1C(c2ccc(F)cc2)=CS/C1=C(\C#N)c1nnc2n1-c1ccccc1SC2`, the Potency was inconclusive: 29.1 µM [falling, partial curve, poor fit]. With `COc1ccccc1N1CCN(C(=O)CSc2ncnc3scc(-c4ccccc4)c23)CC1` the Potency was active: 18.4 µM. With `CCCS(=O)(=O)c1c(S(=O)(=O)CCC)c2c(C)cccn2c1C(N)=O` the Potency was “inactive”. In the case of `Cc1ccc2oc(C(=O)N(Cc3sccc3C)C3CCS(=O)(=O)C3)c(C)c2c1` (stereo not drawn), the Potency is reported as active: 23.1 µM. For `Brc1ccc(-c2ccc(/C=N/Nc3nncc(-c4ccccc4)n3)o2)cc1`, the Potency was “inactive”. With `O=C(Nc1ccc(Cl)cc1)c1ccc(-n2cccn2)c([N+](=O)[O-])c1` the Potency was inconclusive: 14.6 µM [falling, single point]. With `Cc1ccc(NC(=O)CSc2nnc(-c3n[nH]c4ccccc34)n2-c2ccccc2)c(C)c1` the Potency was inconclusive: 29.1 µM [falling, single point]. For `O=C1C(=O)N(C2CCN(C(=O)c3ccccc3F)CC2)CCN1Cc1ccc(F)cc1`, the Potency was inconclusive: 23.1 µM [activator, partial curve, poor fit]. In the case of `Cc1cc(NS(=O)(=O)c2ccc(NC(=O)CCCOc3cccc(C)c3C)cc2)no1`, the Potency is reported as “inactive”. In the case of `Cc1cccc(Oc2ccc(NC(=O)c3ccccc3C(=O)O)cc2)c1C`, the Potency is reported as “inactive”. With `CCOC(=O)c1ccc(NCc2nc3ccccc3[nH]2)cc1` the Potency was inconclusive: 29.1 µM [activator, single point]. For `CN1C(=O)c2cccc(NCCCN3C(=O)c4ccccc4C3=O)c2C1=O`, the Potency was “inactive”. With `Cc1nnc2ccc(-c3ccc(NS(=O)(=O)c4ccc(F)cc4F)cc3)nn12` the Potency was inconclusive: 2.59 µM [activator, partial curve, poor fit]. In the case of `CC(C)CN(C(=O)CSc1nnc(-c2ccco2)o1)c1c(N)n(Cc2ccccc2)c(=O)[nH]c1=O`, the Potency is reported as inconclusive: 7.31 µM [falling, partial curve]. For `Cc1ccc(-c2noc(CSc3nnc(C)n3-c3ccc(C)c(C)c3)n2)cc1`, the Potency was active: 16.4 µM. In the case of `Cc1ccc(NC(=O)c2scc3c2CCCC3)cc1`, the Potency is reported as inconclusive: 9.2 µM [activator, partial curve]. In the case of `c1ccc2c(c1)OCC(CNCC1COc3ccccc3O1)O2` (stereo not drawn), the Potency is reported as “inactive”. For `COc1ccc(NC(=O)CSc2nnc(C3CC3)n2C)cc1S(=O)(=O)N1CCCCC1`, the Potency was inconclusive: 25.9 µM [falling, single point]. For `N#C/C(=C\c1cccnc1)c1ccc([N+](=O)[O-])cc1`, the Potency was inconclusive: 29.1 µM [falling, single point]. In the case of `Cn1c(CNc2ccc(Cl)cc2)nnc1SCc1ccccc1`, the Potency is reported as “inactive”. For `CCn1c(C(=O)OC)cc2c1ccn2-c1ccc(F)cc1`, the Potency was inconclusive: 14.6 µM [activator, partial curve]. In the case of `CCCCC(=O)Nc1nnc(S(=O)(=O)N(C)Cc2ccccc2)s1`, the Potency is reported as “inactive”. For `CCCCN(Cc1ccccc1)S(=O)(=O)c1cc2c(cc1Br)CC(C)N2C(C)=O` (stereo not drawn), the Potency was inconclusive: 16.4 µM [falling, single point]. With `COc1ccccc1NC(=O)CCCc1nc(-c2ccc(OC)c(OC)c2)no1` the Potency was inconclusive: 32.6 µM [falling, single point]. In the case of `O=C(O)C1CCCCC1C(=O)NCc1cn2ccccc2n1` (stereo not drawn), the Potency is reported as “inactive”. In the case of `CCOC(=O)C1C(=O)NC(SCC(=O)Nc2nccs2)=C(C#N)C1c1ccccc1OCC` (stereo not drawn), the Potency is reported as inconclusive: 18.4 µM [falling, partial curve, poor fit]. For `CCN(C(=O)CSc1nc2cc(C(=O)O)ccc2c(=O)n1Cc1ccccc1)c1ccccc1`, the Potency was inconclusive: 3.66 µM [falling, partial curve, poor fit]. In the case of `Cc1cc(NC(=O)[C@H](C)NC(=O)c2ccco2)ccc1Br`, the Potency is reported as inconclusive: 18.4 µM [falling, single point]. With `COc1ccc(/C(N)=N/OC(=O)/C=C/c2ccccc2)cc1` the Potency was inconclusive: 29.1 µM [activator, single point].
